Z-score data for 67 compounds are collected here from the supplement of paper PMC8616043.

Values joined by “and” are separate entries in the source; they are usually repeats but may differ in a detail not shown here. Equal values may be shown once. Where a name gives a salt, the structure may show the parent alone. Some of the results follow. Single values are uncertain here, since repeats match poorly.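 The cells are human U-2 OS cells that stably carry a GFP sensor with a nuclear import signal and a classical export signal. They were transfected to make PR50, a 50-repeat proline–arginine dipeptide protein from the ALS/FTD gene C9ORF72. Each well's nuclear-minus-cytoplasm GFP signal was scaled from in-plate DMSO (low) to PR-only wells (high), then scored against the other test wells on the plate; compounds scoring well below zero were called hits that reverse the PR effect.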

The test relates to U-2 OS NCT-C biosensor cells expressing PR50. Kind of test: Z-score of normalised NCT-C biosensor translocation index in PR50-expressing cells; higher = more nuclear biosensor (more disrupted nuclear export). Particulars: 3 µM; 24 h.
Regarding `O=C1Nc2ccc(Cl)cc2[C@@](C#CC2CC2)(C(F)(F)F)O1` [Efavirenz], the Z-score was inactive: 0.17.

Take `Nc1ccc(C(=O)O)c(O)c1` [4-Aminosalicylic Acid]: the Z-score is inactive: 0.488.

Take `CC(=O)Oc1ccc(C(c2ccc(OC(C)=O)cc2)c2ccccn2)cc1` [Bisacodyl]: the Z-score was inactive: 0.435.

Consider `COc1cccc(OC)c1OCCNCC1CSc2ccccc2O1` (configuration not stated) [Benoxathian hydrochloride], for which the Z-score is inactive: 4.25.

Turning to `Cc1ccc(C(=O)c2cc(/C=C/C(=O)NO)n(C)c2)cc1`, the Z-score was active: -2.27.

For the compound `CCCCS(=N)(=O)CCC(N)C(=O)O` [L-Buthionine- sulfoximine], the Z-score is inactive: 4.53.

In the case of `COc1cc(O)c(C(=O)/C=C/c2ccccc2)c(OC)c1` [Flavokawain B], the Z-score was inactive: 0.325.

Take `CCCc1nn(C)c2c(=O)[nH]c(-c3cc(S(=O)(=O)N4CCN(C)CC4)ccc3OCC)nc12` [Sildenafil Citrate]: the Z-score was inactive: -0.106.

In the case of `COc1cc(CNC(=O)CCCCCCC(C)C)ccc1O` [Dihydrocapsaicin], the Z-score was inactive: -0.542.

For `CC(NCCc1ccc(O)cc1)C(O)c1ccc(O)cc1` (configuration not stated) [Ritodrine hydrochloride], the Z-score is inactive: 0.493.

Take `Cc1nc2c([nH]1)c(=O)n(C)c(=O)n2Cc1ccco1` [Furafylline]: the Z-score was inactive: 0.193.

As for `CCC1(C)CC(=O)NC1=O` (configuration not stated) [Ethosuximide], the Z-score is inactive: 0.394.

With `NC[C@@H]1O[C@H](O[C@H]2[C@@H](O)[C@H](O[C@@H]3[C@@H](O)[C@H](N)C[C@H](N)[C@H]3O[C@H]3O[C@H](CN)[C@@H](O)[C@H](O)[C@H]3N)O[C@@H]2CO)[C@H](N)[C@@H](O)[C@@H]1O` [Neomycin], the Z-score is inactive: -0.244.

As to `Cc1c(C(=O)N2CCOc3ccc(-c4ccc(N)nc4)cc3C2)ccc(S(C)(=O)=O)c1F`, the Z-score was inactive: -0.272.

As for `OC[C@H]1NC[C@@H](O)[C@@H]1O` [1,4-Dideoxy-1,4- imino-D-arabinitol], the Z-score is inactive: 0.385.

On to `COc1cc2nc(N3CCCN(C)CC3)nc(NC3CCN(Cc4ccccc4)CC3)c2cc1OC`, for which the Z-score was inactive: 0.0856 and inactive: 0.459.

For the compound `CN(C)CCCc1cc(C(=O)Nc2ccc(-c3ccncc3)cc2)ccc1O`, the Z-score was inactive: 0.589.

For `NC1CONC1=O` (racemic) [DL-Cycloserine], the Z-score was inactive: -0.304.

`CCc1nn(CCCN2CCN(c3cccc(Cl)c3)CC2)c(=O)n1CCOc1ccccc1` [Nefazodone·HCl]: the Z-score was inactive: -0.445.

Regarding `O=C1c2c(O)ccc(O)c2C(=O)c2c(NCCNCCO)ccc(NCCNCCO)c21` [Mitoxantrone·2HCl], the Z-score is inactive: -0.0496.

Regarding `O=C1c2c(O)ccc(O)c2C(=O)c2c(NCCNCCO)ccc(NCCNCCO)c21` [Mitoxantrone dihydrochloride], the Z-score is inactive: -0.538.

With `CCOC(=O)C1=C(C)NC(C)=C(C(=O)OC)C1c1cccc(Cl)c1Cl` (configuration not stated) [Felodipine], the Z-score is inactive: -0.333.

On to `Cc1nc2sccn2c(=O)c1CCN1CCC(=C(c2ccc(F)cc2)c2ccc(F)cc2)CC1` [Ritanserin], for which the Z-score is inactive: -1.21.

Consider `CC(C)(C)NC[C@H](O)COc1cccc2c1CCCC2=O` [Levobunolol·HCl], for which the Z-score was inactive: 0.303.

`C[N+](C)(C)CCOC(N)=O` [Carbachol (Carbamylcholine ) Chloride]: the Z-score was inactive: -0.295.

Take `C[N+](C)(C)CCOC(N)=O` [Carbachol]: the Z-score is inactive: 0.384.

With `COC(=O)[C@H]1[C@H]2C[C@H]3c4[nH]c5cc(OC)ccc5c4CCN3C[C@H]2C[C@@H](OC(=O)c2cc(OC)c(OC)c(OC)c2)[C@@H]1OC` [(-)-Isoreserpine], the Z-score is inactive: 0.0047.

For `CCN1C(=O)C=CC1=O` [N-Ethylmaleimide], the Z-score was inactive: -0.0482.

As to `CCCC(=O)NCCc1csc(-c2ccc(Cl)cc2)n1` [Azoramide], the Z-score is inactive: 0.889.

`CN(C)CCc1c[nH]c2ccc(CS(=O)(=O)N3CCCC3)cc12` [Almotriptan malate]: the Z-score was inactive: -0.135.

Regarding `CN1CCN2c3ccccc3Cc3ccccc3C2C1` (configuration not stated) [Mianserin hydrochloride], the Z-score was inactive: -0.486.

Turning to `CCCCc1ncc(/C=C(\Cc2cccs2)C(=O)O)n1Cc1ccc(C(=O)O)cc1` [Eprosartan mesylate], the Z-score is inactive: -0.407.

With `CCCCc1ncc(/C=C(\Cc2cccs2)C(=O)O)n1Cc1ccc(C(=O)O)cc1` [Eprosartan Mesylate], the Z-score is inactive: 0.125.

Turning to `N[C@@H](Cc1ccc(O)c(O)c1)C(=O)O` [L-3,4-Dihydroxy phenylalanine], the Z-score was inactive: -0.173.

For the compound `C[C@H]1[C@H](C)CC[C@]2(C(=O)O)CC[C@]3(C)C(=CC[C@@H]4[C@@]5(C)C[C@@H](O)[C@H](O)[C@@](C)(CO)[C@@H]5[C@H](O)C[C@]43C)[C@H]12` [Madecassic acid], the Z-score is inactive: -0.602.

On to `O=c1cc(N2CCOCC2)oc2c(-c3ccccc3)cccc12` [LY-294,002  hydrochloride], for which the Z-score was inactive: -0.253.

Turning to `CN1c2ccccc2C(=O)N2CCc3c([nH]c4ccccc34)C21` (stereo in doubt) [Evodiamine], the Z-score is inactive: -0.538.

Consider `CC(C)NNC(=O)c1ccncc1` [Iproniazid phosphate], for which the Z-score is inactive: 0.842.

With `O=C(O)c1cc(=O)c2ccccc2[nH]1` [Kynurenic acid], the Z-score was inactive: -0.155.

`C=CCNc1ncnc2ccc(Br)cc12`: the Z-score is inactive: 0.655.

With `C[C@H]1C(=O)CC[C@@H]2[C@]1(C)CC[C@H]1[C@@]2(C)CC[C@@]2(C)[C@@H]3CC(C)(C)CC[C@]3(C)CC[C@]12C` [Friedelin], the Z-score is inactive: -0.00806.

In the case of `Cc1ccc(Nc2nccc(N(C)c3ccc4c(C)n(C)nc4c3)n2)cc1S(N)(=O)=O` [Pazopanib·HCl], the Z-score is inactive: 0.0363.

As for `CCc1ccc(/C=C2/SC(=S)NC2=O)cc1`, the Z-score was inactive: 0.249.

Turning to `CCC[C@@H]1C[C@@H](C(=O)N[C@@H]([C@H]2O[C@H](SC)[C@H](O)[C@@H](O)[C@H]2O)[C@@H](C)O)N(C)C1` [Lincomycin·HCl monohydrate], the Z-score was inactive: 2.32.

As for `CCC[C@@H]1C[C@@H](C(=O)N[C@@H]([C@H]2O[C@H](SC)[C@H](O)[C@@H](O)[C@H]2O)[C@@H](C)O)N(C)C1` [Lincomycin], the Z-score is inactive: -0.329.

Regarding `CO[C@H]1C[C@@H]2CC[C@@H](C)[C@@](O)(O2)C(=O)C(=O)N2CCCC[C@H]2C(=O)O[C@H]([C@H](C)C[C@@H]2CC[C@@H](OC(=O)C(C)(CO)CO)[C@H](OC)C2)CC(=O)[C@H](C)/C=C(\C)[C@@H](O)[C@@H](OC)C(=O)[C@H](C)C[C@H](C)/C=C/C=C/C=C/1C` [Temsirolimus], the Z-score was inactive: -0.533.

On to `C#C[C@]1(O)CC[C@H]2[C@@H]3CCC4=Cc5oncc5C[C@]4(C)[C@H]3CC[C@@]21C` [Danazol], for which the Z-score is inactive: 0.292.

Turning to `CC12CC3CC(C)(C1)CC(N)(C3)C2` [Memantine hydrochloride], the Z-score was inactive: 0.0292.

For `CC12CC3CC(C)(C1)CC(N)(C3)C2` [Memantine·HCl], the Z-score is inactive: -0.999.

As for `O=C(O)c1cc2cc(F)ccc2[nH]1` [5-Fluoroindole-2- carboxylic acid], the Z-score was inactive: -0.0667.

For the compound `COc1ccc(-c2ccc3cc(C(=O)O)ccc3c2)cc1C12CC3CC(CC(C3)C1)C2` [Adapalene], the Z-score was inactive: 0.367.

In the case of `O=c1[nH]c(=O)n([C@H]2C[C@H](O)[C@@H](CO)O2)cc1I` [Idoxuridine], the Z-score was inactive: -0.0986.

`N[C@@H](COP(=O)(O)O)C(=O)O` [O-Phospho-L- serine]: the Z-score was inactive: 0.239.

Consider `O=C(O)c1cccnc1` [Niacin (Known As Vitamin B3, Nicotinic Acid And Vitamin Pp)], for which the Z-score was inactive: -0.614.

Consider `CN1CCN(C2=Nc3ccccc3Cc3ccccc32)CC1` [Perlapine], for which the Z-score was inactive: -0.156.

As for `CCCCc1oc2ccccc2c1C(=O)c1cc(I)c(OCCN(CC)CC)c(I)c1` [Amiodarone hydrochloride], the Z-score is inactive: -0.0266.

For the compound `CCCCc1oc2ccccc2c1C(=O)c1cc(I)c(OCCN(CC)CC)c(I)c1` [Amiodarone·HCl], the Z-score was inactive: 0.317.

As to `CC1(C)O[C@@H]2C[C@H]3[C@@H]4C[C@H](F)C5=CC(=O)CC[C@]5(C)[C@H]4[C@@H](O)C[C@]3(C)[C@]2(C(=O)CO)O1` [Flurandrenolide], the Z-score is inactive: 0.301.

With `COc1ccc(Br)cc1S(=O)(=O)NC(=O)/C=C/c1ccccc1Cc1ccc2ccccc2c1`, the Z-score was inactive: -0.205.

Regarding `COc1ccc(/C=C/c2cc(O)cc(O[C@@H]3O[C@H](CO)[C@@H](O)[C@H](O)[C@H]3O)c2)cc1O` [Rhapontin], the Z-score was inactive: 0.615.

Consider `NNC(=O)c1ccncc1` [Isoniazid], for which the Z-score was inactive: 1.87.

In the case of `CN(C(=O)CCCOc1ccc2[nH]c(=O)ccc2c1)C1CCCCC1` [Cilostamide], the Z-score was inactive: 0.711.

As for `CCCCCC(O)CCCC(=O)O` (configuration not stated) [5-hydroxydecanoic acid sodium salt], the Z-score is inactive: -0.394.

Turning to `Nc1ncnc2c1ncn2C1CCCC1` [9-cyclopentyl adenine monomethanesulf onate], the Z-score is inactive: -0.145.

As to `O=C1NC(c2cccc([N+](=O)[O-])c2)=CCN1c1ccccc1O` [Icilin], the Z-score was inactive: -0.917.

Turning to `CCCN(CC1CC1)c1nc(C)nc(Nc2c(Cl)cc(Cl)cc2Cl)c1Cl`, the Z-score was inactive: 0.0258.

In the case of `C[C@H](CS)C(=O)N1CCC[C@H]1C(=O)O` [Captopril], the Z-score was inactive: -0.038.
